Data on one substance can be found in publication PMC3817200.

Chains of the proteins cited; added tags and fusions are not shown. Residues count along the entry.
UniProt Q99IB8, residues 1977-2442: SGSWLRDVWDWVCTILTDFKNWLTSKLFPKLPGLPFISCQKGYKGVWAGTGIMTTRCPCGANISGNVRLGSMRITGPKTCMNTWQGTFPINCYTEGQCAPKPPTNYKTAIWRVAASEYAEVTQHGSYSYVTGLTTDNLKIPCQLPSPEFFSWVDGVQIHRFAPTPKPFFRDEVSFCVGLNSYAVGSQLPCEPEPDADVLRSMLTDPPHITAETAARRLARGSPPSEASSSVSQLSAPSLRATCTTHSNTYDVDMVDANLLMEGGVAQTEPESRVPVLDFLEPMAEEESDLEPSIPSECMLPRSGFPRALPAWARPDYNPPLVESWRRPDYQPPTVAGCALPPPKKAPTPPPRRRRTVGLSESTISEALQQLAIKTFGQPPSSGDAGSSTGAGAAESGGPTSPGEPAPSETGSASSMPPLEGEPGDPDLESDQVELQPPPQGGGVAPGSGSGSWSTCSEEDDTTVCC

In test [1] the target is NS5A of genotype 1b in HCV Con1 replicon cells (hepatitis C virus genotype 1b (Con1 replicon)) (UniProt Q9WMX2). Description: co-IP; Con1 replicon cells and Huh7.5.1 cells infected with JFH1 for 72 h, lysed directly; anti-NS5A antibody or control mouse IgG; blot with anti-GPS2 antibody. In general terms: In antiviral work, replicon cells carry a viral genome segment that copies itself.

The target in test [2] is NS5A of genotype 2a in JFH1 (HCVcc) infected Huh7.5.1 cells (hepatitis C virus genotype 2a (JFH1)) (UniProt Q99IB8). Described as above.

These are yes or no findings as the source states them, for the method shown. Binding seen in cells or lysates may run through a third protein. Some results given as binding are weak or reduced against the parent protein; the word gives no strength.

Take “endogenous GPS2 (G protein pathway suppressor 2) (from UniProt Q13227-1 1-327)”: the binding entry in test [1] and in test [2] was “binds” throughout.
